The whole screen tested about 320,000 compounds, of which about 740 (0.23%) were called active. Inconclusive means that the source gave no clear call. Such entries were picked first, then a sample of the others. Calls come from the whole dose curve; as a rule, active = well fitted activation curve with a large enough effect; inconclusive = small, poorly fitted or top-dose-only effect; inactive = no such curve, though single readings can be large or run the other way. Potencies of inconclusive entries are doubtful fits and often do not repeat.
Experiment: qHTS Assay for Small Molecule Inhibitors of Mitochondrial Division or Activators of Mitochondrial Fusion; note: nearly all actives have a fitted effect of over 45% in size
Details: S. cerevisiae fusion-defective mutant growth rescue, CellTiterGlo 48 h; series mostly up to 46.1 µM
Procedure, shortened: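 Read-out: ATP-based luminescence (CellTiterGlo, 10 min ambient) reporting growth of fusion-defective ts yeast after 48 hours at 37C on glycerol/ethanol YPEG medium in the presence of compound.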
Potency is the fitted concentration of half-maximal effect.

Row | Compound | Potency
1 | COC(=O)c1c(NC(=O)CN2CCCc3ccccc32)sc(C)c1C | inconclusive: 35.5 µM [activator, single point]
2 | CCOC(=O)c1c(Cc2ccc(Cl)cc2)c[nH]c1C | inconclusive: 12.6 µM [activator, partial curve]
3 | Cc1cc(C)nc(-n2ncc3c2CC(c2ccc(C(C)C)cc2)CC3=O)n1 (stereo not drawn) | inconclusive: 35.5 µM [activator, single point]
4 | O=Cc1cn(-c2ccccc2)nc1-c1cccnc1 | inconclusive: 14.1 µM [activator, single point]
5 | Cc1ccc(CSc2nc3ccsc3c(=O)n2Cc2ccccn2)cc1 | inconclusive: 35.5 µM [activator, single point]
6 | N/C(=N\OC(=O)CCC1CCCC1)c1ccc(Br)cc1 | inactive
7 | Cc1cc(C)c(C(=O)N2CCCC(Nc3ccc(F)cc3)C2)o1 (stereo not drawn) | inconclusive: 35.5 µM [activator, single point]
8 | COC(=O)c1c(C)oc2ccc(N(C(=O)c3ccncc3)S(=O)(=O)c3ccc(C)cc3)cc12 | inconclusive: 15.8 µM [activator, partial curve]
9 | CCOc1cc(S(=O)(=O)NCc2ccc3c(c2)OCO3)c(C)cc1C | inactive
10 | CSC1=NCCN1C(=O)c1ccc(Br)o1 | inconclusive: 11.2 µM [activator, partial curve]
11 | CCOC(=O)c1c2c(c(=S)n(-c3ccccc3)c1N)CCC2 | inconclusive: 12.6 µM [activator, partial curve]
12 | CCc1ccc(CN(C(=O)c2oc3ccccc3c2C)C2CCS(=O)(=O)C2)cc1 (stereo not drawn) | inconclusive: 17.8 µM [activator, single point]
13 | Cc1c(-n2cc(C(=O)c3cc(F)ccc3O)cc(C#N)c2=O)c(=O)n(-c2ccccc2)n1C | inconclusive: 5.62 µM [activator, single point]
14 | CCc1cc(C(=O)Nc2ccc(C)cc2Br)cs1 | inactive
15 | COc1ccc(N(C(=O)c2cccnc2)S(=O)(=O)c2cccs2)cc1 | inconclusive: 3.98 µM [activator, single point]
16 | CCOC(=O)C1CCCCN1C(=O)c1oc2c(Cl)cc(C)cc2c1C (stereo not drawn) | inactive
17 | O=C(c1cc2c(=O)n3ccccc3nc2s1)N1CCN(c2cccc(Cl)c2)CC1 | inconclusive: 11.2 µM [activator, partial curve]
18 | COc1ccc(/C=N/OCC(=O)Nc2nc3ccccc3s2)cc1 | inconclusive: 35.5 µM [activator, single point]
19 | Cc1cc(C)nc(SCC(=O)Nc2nc(-c3ccccc3)c(-c3ccccc3)o2)n1 | inconclusive: 31.6 µM [activator, single point]
20 | C/[N+]([O-])=C\C1C(=O)CC(C)(C)CC1=O | inconclusive: 20 µM [activator, partial curve]
21 | c1ccc(-c2nnc(N3CCN(c4ccccn4)CC3)c3ccccc23)cc1 | inconclusive: 20 µM [activator, partial curve]
22 | S=C(NCc1ccccc1Cl)NC1CCCC1 | inconclusive: 5.62 µM [activator, single point]
23 | COC(=O)c1sc(S(=O)(=O)Nc2ccc(Br)cc2)c(C(=O)OC)c1C | inconclusive: 12.6 µM [activator, partial curve]

Row | Compound | Potency
24 | O=C1OCC2=C1C(c1ccc(F)cc1)c1cc3c(cc1N2)OCCO3 (stereo not drawn) | inactive
25 | CC(=O)N1CC[n+]2c(-c3ccc(Cl)cc3Cl)csc21 | inconclusive: 31.6 µM [activator, single point]
26 | Cc1ccc(CC2SC(=Nc3ccccc3)N(c3ccccc3)C2=O)cc1 (stereo not drawn) | inconclusive: 12.6 µM [activator, partial curve]
27 | Cc1ccc(-n2nc(C)c3c2NC2=C(C(=O)CC(C)(C)C2)C3c2ccccc2OCC(=O)O)cc1 (stereo not drawn) | inactive
28 | Cc1ccc(NS(=O)(=O)c2ccc(N3CCN(c4ccc(O)cc4)CC3)c([N+](=O)[O-])c2)c(C)c1 | inconclusive: 3.16 µM [activator, single point]
29 | Cc1sc(NC(=O)c2ccco2)nc1-c1ccccc1 | inconclusive: 17.8 µM [activator, partial curve]
30 | N#Cc1nc(Cc2cccc3ccccc23)oc1N1CCCCC1 | inconclusive: 31.6 µM [activator, partial curve]
31 | CC(c1ccco1)N(C(=O)c1ccccc1NS(=O)(=O)c1cc([N+](=O)[O-])ccc1Cl)c1ccccn1 (stereo not drawn) | inconclusive: 12.6 µM [activator, partial curve]
32 | Cc1ccc(C)c(S(=O)(=O)N2CCN(C(=O)CCCc3c[nH]c4ccccc34)CC2)c1 | inconclusive: 12.6 µM [activator, single point]
33 | CCCCCCCCCS(=O)(=O)N/N=C/c1cccc([N+](=O)[O-])c1 | inconclusive: 5.62 µM [activator, single point]
34 | COc1ccc(NC(=S)Nc2ccccc2)cn1 | inactive
35 | O=C(Nc1ccc(C2CC2(Cl)Cl)cc1)c1ccccc1Br (stereo not drawn) | active: 14.1 µM
36 | CCc1nc2ccccc2n1CC1CC1(Cl)Cl (stereo not drawn) | inconclusive: 35.5 µM [activator, single point]
37 | Cc1cc(N2CCN(S(=O)(=O)c3ccc(Cl)c(Cl)c3)CC2)c2ccccc2n1 | inconclusive: 12.6 µM [activator, partial curve]
38 | Cc1ccc(Nc2nc3nonc3[nH]c2=O)cc1Cl | inconclusive: 20 µM [activator, single point]
39 | O=C(Nc1nc(-c2ccccc2)cs1)Nc1ccc(F)cc1F | inconclusive: 31.6 µM [activator, single point]
40 | O=S(=O)(c1ccc(F)cc1)N1CCN(c2nc(-c3cccnc3)nc3ccccc23)CC1 | inconclusive: 10 µM [activator, partial curve]
41 | O=C(CN1CCN(c2ccccn2)CC1)Nc1ccccc1 | inconclusive: 35.5 µM [activator, partial curve]
42 | CC(O)(CS(=O)(=O)Cc1ccccc1)c1ccc(Cl)cc1 (stereo not drawn) | inconclusive: 0.316 µM [activator, partial curve, poor fit]
43 | Cc1nc2ccccn2c1C(=O)NNC(=S)Nc1ccc(Cl)cc1 | inconclusive: 17.8 µM [activator, single point]
44 | O=S(=O)(c1ccccc1)N1CCN(C(=S)Nc2ccc(Br)cc2)CC1 | inactive
45 | COc1ccc(/C=N\NC(=O)c2ccc(F)cc2)cc1COc1ccccc1C(N)=O | inactive
46 | CN1CCN(c2nc(-c3cccnc3)nc3ccccc23)CC1 | inactive

Grouped by structure, the compounds so far containing an aryl methoxy group.
Row | Compound | Potency
15 | COc1ccc(N(C(=O)c2cccnc2)S(=O)(=O)c2cccs2)cc1 | inconclusive: 3.98 µM [activator, single point]
18 | COc1ccc(/C=N/OCC(=O)Nc2nc3ccccc3s2)cc1 | inconclusive: 35.5 µM [activator, single point]
34 | COc1ccc(NC(=S)Nc2ccccc2)cn1 | inactive
45 | COc1ccc(/C=N\NC(=O)c2ccc(F)cc2)cc1COc1ccccc1C(N)=O | inactive

The list goes on.

Row | Compound | Potency
47 | O=C(Nc1ccc(F)cc1)c1ccc(CSc2ccccc2)o1 | inconclusive: 25.1 µM [activator, single point]
48 | O=C(CCCC(=O)OCC(Cl)=C(Cl)Cl)Nc1cccc(F)c1 | inactive
49 | Cc1cccc(-c2nn(-c3ccccc3)cc2C(=O)NCC(c2cccs2)N2CCOCC2)c1 (stereo not drawn) | inconclusive: 15.8 µM [activator, single point]
50 | O=C1/C(=C/c2ccco2)SC(=S)N1C1CCS(=O)(=O)C1 (stereo not drawn) | inconclusive: 12.6 µM [activator, partial curve, poor fit]
51 | CCOC(=O)[C@H]1[C@H]2COc3ccc(Cl)cc3[C@@H]2N2C(=O)c3cc(OC)ccc3NC(=O)[C@@]12C | inconclusive: 12.6 µM [activator, single point]
52 | O/N=C/c1ccc(OCc2ccccc2)c(Cl)c1 | active: 22.4 µM
53 | C[C@]12CC[C@@H]3c4ccc(O)cc4CC[C@H]3[C@@H]1CC[C@@H]2OC(=O)CCC(=O)O | inactive
54 | CCOc1cc2[nH]c(=S)n(CCCC(=O)NCc3ccco3)c(=O)c2cc1OCC | inactive
55 | Cc1ccc(SCCC(=O)Nc2ccccc2Br)cc1 | inactive
56 | CC1(C)Cc2cccc(OCC(=O)N3CCN(c4ccccc4F)CC3)c2O1 | inconclusive: 35.5 µM [activator, single point]
57 | CCn1c(=O)cc(SCC(=O)N2CCN(c3ccccc3F)CC2)c2ccccc21 | inconclusive: 15.8 µM [activator, single point]
58 | CCOc1ccc(NC(=O)CN2CCN(CC(=O)Nc3ccc(C(N)=O)cc3)CC2)cc1 | inconclusive: 6.31 µM [activator, partial curve]
59 | Clc1cccc(N2CCN(Cc3nnc(-c4ccccc4)o3)CC2)c1 | inconclusive: 12.6 µM [activator, partial curve]
60 | O=C(OCC(=O)N1CCOCC1)c1ccc2ccccc2c1O | inactive
61 | CC1CCN(C(=O)CCCN2C(=O)c3cccnc3Oc3ccc(Cl)cc32)CC1 | inconclusive: 2.24 µM [activator, full curve, poor fit]
62 | O=C(O)/C(=C\c1ccc(-c2ccc(F)cc2)o1)c1ccccc1 | inconclusive: 35.5 µM [activator, single point]
63 | CN(C)S(=O)(=O)c1ccc(C(=O)Nc2ccc3c(c2)CCC3)cc1 | inconclusive: 35.5 µM [activator, partial curve]
64 | CC(C)(C)C1CCc2c(sc(NC(=O)c3ccncc3)c2C(N)=O)C1 (stereo not drawn) | inconclusive: 25.1 µM [activator, single point]
65 | CC(=O)c1c(C)nn(CC(=O)NC2CCCN(Cc3ccc(CC(C)C)cc3)C2)c1C (stereo not drawn) | inactive
66 | Cc1ccc(OCC(=O)Nc2ccccc2Sc2ccccc2)c([N+](=O)[O-])n1 | inconclusive: 28.2 µM [activator, single point]
67 | CCOc1ccccc1C(=O)N[C@H](C(=O)Nc1nc2c(s1)CCCC2)C(C)C | inconclusive: 17.8 µM [activator, partial curve]
68 | COc1ccccc1NC(=O)c1ccc(-c2ccccc2[N+](=O)[O-])o1 | inconclusive: 0.355 µM [activator, partial curve, poor fit]

Reference: PubChem BioAssay AID485298 (National Center for Advancing Translational Sciences (NCATS), 2010)
